According to the supplement of paper PMC8728848:
Some of the results follow.

Tests used:
Assay in all cases: glycan array binding signal (z-score within array); higher = stronger binding
Settings in all cases: glycan notation: IUPAC condensed, linker removed
[1] = molecular target: Fuc(a1-2)[GalNAc(a1-3)]Gal(b1-3)GlcNAc(b1-3)GalNAc
Method in brief: (§1)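 Columns mapping to the same glycan were averaged after glycan names were converted to IUPAC-condensed notation. The data come from 3228 arrays in the Consortium for Functional Glycomics database, limited to those with an available protein sequence. Binding is reported as a within-array Z-score averaged across arrays of one protein sequence and across linkers.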

[2] = molecular target: Fuc(a1-2)[GalNAc(a1-3)]Gal(b1-3)GlcNAc(b1-6)GalNAc
Method in brief: as §1

[3] = molecular target: Fuc(a1-2)[GalNAc(a1-3)]Gal(b1-4)Glc
Method in brief: as §1

[4] = molecular target: Fuc(a1-2)[GalNAc(a1-3)]Gal(b1-4)GlcNAc
Method in brief: as §1

[5] = molecular target: Fuc(a1-2)[GalNAc(a1-3)]Gal(b1-4)GlcNAc(b1-2)Man
Method in brief: as §1

[6] = molecular target: Fuc(a1-2)[GalNAc(a1-3)]Gal(b1-4)GlcNAc(b1-2)Man(a1-3)[Fuc(a1-2)[GalNAc(a1-3)]Gal(b1-4)GlcNAc(b1-2)Man(a1-6)]Man(b1-4)GlcNAc(b1-4)GlcNAc
Method in brief: as §1

[7] = molecular target: Fuc(a1-2)[GalNAc(a1-3)]Gal(b1-4)GlcNAc(b1-2)Man(a1-3)[Fuc(a1-2)[GalNAc(a1-3)]Gal(b1-4)GlcNAc(b1-2)Man(a1-6)]Man(b1-4)GlcNAc(b1-4)[Fuc(a1-6)]GlcNAc
Method in brief: as §1

[8] = molecular target: Fuc(a1-2)[GalNAc(a1-3)]Gal(b1-4)GlcNAc(b1-3)Gal(b1-4)GlcNAc
Method in brief: as §1

[9] = molecular target: Fuc(a1-2)[GalNAc(a1-3)]Gal(b1-4)GlcNAc(b1-3)Gal(b1-4)GlcNAc(b1-3)Gal(b1-4)GlcNAc
Method in brief: as §1

[10] = molecular target: Fuc(a1-2)[GalNAc(a1-3)]Gal(b1-4)GlcNAc(b1-3)GalNAc
Method in brief: as §1

[11] = molecular target: Fuc(a1-2)[GalNAc(a1-3)]Gal(b1-4)GlcNAc(b1-3)[Fuc(a1-2)[GalNAc(a1-3)]Gal(b1-4)GlcNAc(b1-6)]GalNAc
Method in brief: as §1

[12] = molecular target: Fuc(a1-2)[GalNAc(a1-3)]Gal(b1-4)GlcNAc(b1-6)GalNAc
Method in brief: as §1

[13] = molecular target: Fuc(a1-2)[GalNAc(a1-3)]Gal(b1-4)[Fuc(a1-3)]GlcNAc
Method in brief: as §1

[14] = molecular target: Fuc(a1-2)[GalNAc(a1-3)]Gal(b1-4)[Fuc(a1-3)]GlcNAc(b1-3)GalNAc
Method in brief: as §1

[15] = molecular target: Fuc(a1-2)[GalNAc(a1-4)]Gal(b1-4)GlcNAc
Method in brief: as §1

[16] = molecular target: Fuc(a1-2)[GalNAc(b1-3)]Gal
Method in brief: as §1

[17] = molecular target: Fuc(a1-3)GlcNAc
Method in brief: as §1

[18] = molecular target: Fuc(a1-3)[Gal(b1-4)]Glc6S
Method in brief: as §1

[19] = molecular target: Fuc(a1-3)[Gal(b1-4)]GlcNAc
Method in brief: as §1

[20] = molecular target: Fuc(a1-3)[Gal(b1-4)]GlcNAc(b1-2)Man
Method in brief: as §1

[21] = molecular target: Fuc(a1-3)[Gal(b1-4)]GlcNAc(b1-2)Man(a1-3)[Fuc(a1-3)[Gal(b1-4)]GlcNAc(b1-2)Man(a1-6)]Man(b1-4)GlcNAc(b1-4)GlcNAc
Method in brief: as §1

[22] = molecular target: Fuc(a1-3)[Gal(b1-4)]GlcNAc(b1-2)Man(a1-3)[Fuc(a1-3)[Gal(b1-4)]GlcNAc(b1-2)Man(a1-6)]Man(b1-4)GlcNAc(b1-4)[Fuc(a1-6)]GlcNAc
Method in brief: as §1

[23] = molecular target: Fuc(a1-3)[Gal(b1-4)]GlcNAc(b1-3)Gal(b1-3)[Fuc(a1-4)]GlcNAc
Method in brief: as §1

[24] = molecular target: Fuc(a1-3)[Gal(b1-4)]GlcNAc(b1-3)Gal(b1-4)[Fuc(a1-3)]GlcNAc
Method in brief: as §1

[25] = molecular target: Fuc(a1-3)[Gal(b1-4)]GlcNAc(b1-3)Gal(b1-4)[Fuc(a1-3)]GlcNAc(b1-3)Gal(b1-4)[Fuc(a1-3)]GlcNAc
Method in brief: as §1

[26] = molecular target: Fuc(a1-3)[Gal(b1-4)]GlcNAc(b1-3)GalNAc
Method in brief: as §1

[27] = molecular target: Fuc(a1-3)[Gal(b1-4)]GlcNAc(b1-6)GalNAc
Method in brief: as §1

[28] = molecular target: Fuc(a1-3)[Gal(b1-4)]GlcNAc(b1-6)[Gal(b1-3)GlcNAc(b1-3)]Gal(b1-4)Glc
Method in brief: as §1

[29] = molecular target: Fuc(a1-3)[Gal(b1-4)]GlcNAc6S
Method in brief: as §1

[30] = molecular target: Fuc(a1-3)[Gal3S(b1-4)]Glc
Method in brief: as §1

[31] = molecular target: Fuc(a1-3)[Gal3S(b1-4)]GlcNAc
Method in brief: as §1

[32] = molecular target: Fuc(a1-3)[Gal3S(b1-4)]GlcNAc6S
Method in brief: as §1

[33] = molecular target: Fuc(a1-3)[GalNAc(b1-4)]GlcNAc
Method in brief: as §1

[34] = molecular target: Fuc(a1-3)[GalNAc(b1-4)]GlcNAc6S
Method in brief: as §1

[35] = molecular target: Fuc(a1-4)GlcNAc
Method in brief: as §1

[36] = molecular target: Fuc(b1-3)GlcNAc
Method in brief: as §1

[37] = molecular target: Gal(a1-2)Gal
Method in brief: as §1

[38] = molecular target: Gal(a1-3)Gal
Method in brief: as §1

[39] = molecular target: Gal(a1-3)Gal(b1-3)GlcNAc
Method in brief: as §1

[40] = molecular target: Gal(a1-3)Gal(b1-3)GlcNAc(b1-2)Man
Method in brief: as §1

[41] = molecular target: Gal(a1-3)Gal(b1-3)GlcNAc(b1-2)Man(a1-3)[Gal(a1-3)Gal(b1-3)GlcNAc(b1-2)Man(a1-6)]Man(b1-4)GlcNAc(b1-4)GlcNAc
Method in brief: as §1

[42] = molecular target: Gal(a1-3)Gal(b1-3)GlcNAc(b1-3)GalNAc
Method in brief: as §1

[43] = molecular target: Gal(a1-3)Gal(b1-3)GlcNAc(b1-6)GalNAc
Method in brief: as §1

[44] = molecular target: Gal(a1-3)Gal(b1-3)[Fuc(a1-4)]GlcNAc(b1-2)Man(a1-3)[Gal(a1-3)Gal(b1-3)[Fuc(a1-4)]GlcNAc(b1-2)Man(a1-6)]Man(b1-4)GlcNAc(b1-4)GlcNAc
Method in brief: as §1

[45] = molecular target: Gal(a1-3)Gal(b1-4)Glc
Method in brief: as §1

B1: LysMD3 (Homo sapiens), Q7Z3D4 (protein)
chain: MAGRHQNRSFPLPGVQSSGQVHAFGNCSDSDILEEDAEVYELRSRGKEKVRRSTSRDRLDDIIVLTKDIQEGDTLNAIALQYCCTVADIKRVNNLISDQDFFALRSIKIPVKKFSSLTETLCPPKGRQTSRHSSVQYSSEQQEILPANDSLAYSDSAGSFLKEVDRDIEQIVKCTDNKRENLNEVVSALTAQQMRFEPDNKNTQRKDPYYGADWGIG
glycan array binding signal (z-score) [1]: 0.102
glycan array binding signal (z-score) [2]: -0.837
glycan array binding signal (z-score) [3]: 0.81
glycan array binding signal (z-score) [4]: 0.896
glycan array binding signal (z-score) [5]: 0.406
glycan array binding signal (z-score) [6]: -0.764
glycan array binding signal (z-score) [7]: 0.075
glycan array binding signal (z-score) [8]: 0.058
glycan array binding signal (z-score) [9]: 0.211
glycan array binding signal (z-score) [10]: -0.457
glycan array binding signal (z-score) [11]: 0.331
glycan array binding signal (z-score) [12]: -0.259
glycan array binding signal (z-score) [13]: 0.368
glycan array binding signal (z-score) [14]: -0.994
glycan array binding signal (z-score) [15]: 1.49
glycan array binding signal (z-score) [16]: 1.47
glycan array binding signal (z-score) [17]: 1.14
glycan array binding signal (z-score) [18]: -0.469
glycan array binding signal (z-score) [19]: 1.08
glycan array binding signal (z-score) [20]: -0.772
glycan array binding signal (z-score) [21]: 0.287
glycan array binding signal (z-score) [22]: 0.362
glycan array binding signal (z-score) [23]: -0.674
glycan array binding signal (z-score) [24]: 0.881
glycan array binding signal (z-score) [25]: -0.28
glycan array binding signal (z-score) [26]: -0.129
glycan array binding signal (z-score) [27]: 0.492
glycan array binding signal (z-score) [28]: -0.11
glycan array binding signal (z-score) [29]: -0.856
glycan array binding signal (z-score) [30]: 0.118
glycan array binding signal (z-score) [31]: -0.081
glycan array binding signal (z-score) [32]: 0.211
glycan array binding signal (z-score) [33]: 0.633
glycan array binding signal (z-score) [34]: -0.521
glycan array binding signal (z-score) [35]: 0.681
glycan array binding signal (z-score) [36]: 0.834
glycan array binding signal (z-score) [37]: 0.763
glycan array binding signal (z-score) [38]: 0.245
glycan array binding signal (z-score) [39]: -0.104
glycan array binding signal (z-score) [40]: -0.1
glycan array binding signal (z-score) [41]: -0.227
glycan array binding signal (z-score) [42]: 0.235
glycan array binding signal (z-score) [43]: -0.85
glycan array binding signal (z-score) [44]: -0.72
glycan array binding signal (z-score) [45]: 0.338
